{"sequences": {"note": "Protein sequences, listed by entry. Tags and fused reporters are not part of them. Residues count along the entry.", "UniProt O95218, 65-95 R82A": "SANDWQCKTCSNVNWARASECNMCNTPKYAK", "UniProt O95218, 65-95 W79A": "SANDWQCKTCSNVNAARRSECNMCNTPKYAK", "UniProt O95218, 65-95 R81A": "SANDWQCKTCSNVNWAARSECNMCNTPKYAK", "UniProt O95218, 65-95 R82N": "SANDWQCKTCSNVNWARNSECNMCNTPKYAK", "UniProt P46099, 275-357": "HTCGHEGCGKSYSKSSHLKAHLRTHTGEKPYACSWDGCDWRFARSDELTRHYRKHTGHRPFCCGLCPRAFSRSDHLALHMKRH"}, "source": "patent US20130022590", "key": {"[1]": {"target": "T1, ZRANB2-F122 (F1-F2-F2) (Homo sapiens) (UniProt O95218)", "T1 sequence (looked up, limits assumed)": "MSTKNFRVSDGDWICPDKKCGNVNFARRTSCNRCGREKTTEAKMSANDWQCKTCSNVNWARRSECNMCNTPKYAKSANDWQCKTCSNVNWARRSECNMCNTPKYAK", "assay": "FP", "settings": "higher affinity than F12 delta45-64; purified recombinant protein; label: 5'-fluorescein"}, "[2]": {"target": "T2, ZRANB2-F12 (Homo sapiens) (UniProt O95218)", "T2 sequence (looked up)": "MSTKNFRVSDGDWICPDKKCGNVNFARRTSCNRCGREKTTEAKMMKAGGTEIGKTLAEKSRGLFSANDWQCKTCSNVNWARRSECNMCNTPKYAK", "assay": "FP", "settings": "small reproducible reduction versus double site; value in figure only; purified recombinant protein; protein details: GST removed for FA, gel shift and SPR; label: 5'-fluorescein; variant of double site AGGUAAAGGUAA"}, "[3]": {"target": "T2, ZRANB2-F12 (Homo sapiens)", "assay": "competition with a labelled probe", "settings": "weaker competitor than exon 3 in SPR competition; purified recombinant protein; protein details: GST removed for FA, gel shift and SPR"}, "EKLF-F123": {"target": "EKLF-F123 (UniProt P46099)", "assay": "FP", "settings": "weaker than polyU; purified recombinant protein; protein details: zinc fingers 1-3"}, "ZRANB2-F2 (Homo sapiens)": {"target": "T3, ZRANB2-F2 (Homo sapiens) (UniProt O95218)", "T3 sequence (looked up)": "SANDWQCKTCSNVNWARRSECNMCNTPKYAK", "assay": "FP", "settings": "purified recombinant protein; protein details: GST fusion (FA); label: 5'-fluorescein; variant of 17-nt AGGUAA ssRNA"}, "[4]": {"target": "T4, ZRANB2-F2 N86A (Homo sapiens) (UniProt O95218)", "T4 sequence (looked up)": "T3 sequence (looked up) with N22A", "assay": "FP", "settings": "significantly reduced Ka; purified recombinant protein; label: 5'-fluorescein (FA) or 32P (gel shift)"}, "[5]": {"target": "T5, ZRANB2-F2 R82A (Homo sapiens) (UniProt O95218)", "T5 sequence (looked up)": "T3 sequence (looked up) with R18A", "assay": "FP", "settings": "significantly reduced Ka; purified recombinant protein; label: 5'-fluorescein (FA) or 32P (gel shift)"}, "[6]": {"target": "T6, ZRANB2-F2 W79A (Homo sapiens) (UniProt O95218)", "T6 sequence (looked up)": "T3 sequence (looked up) with W15A", "assay": "FP", "settings": "significantly reduced Ka; purified recombinant protein; label: 5'-fluorescein (FA) or 32P (gel shift)"}, "[7]": {"target": "T7, ZRANB2-F2 M87A (Homo sapiens) (UniProt O95218)", "T7 sequence (looked up)": "T3 sequence (looked up) with M23A", "assay": "FP", "settings": "significantly reduced Ka; purified recombinant protein; label: 5'-fluorescein (FA) or 32P (gel shift)"}, "[8]": {"target": "T8, ZRANB2-F2 R81A (Homo sapiens) (UniProt O95218)", "T8 sequence (looked up)": "T3 sequence (looked up) with R17A", "assay": "FP", "settings": "significantly reduced Ka; purified recombinant protein; label: 5'-fluorescein (FA) or 32P (gel shift)"}, "[9]": {"target": "T9, ZRANB2-F2 R82N (Homo sapiens) (UniProt O95218)", "T9 sequence (looked up)": "T3 sequence (looked up) with R18N", "assay": "FP", "settings": "purified recombinant protein; label: 5'-fluorescein (FA) or 32P (gel shift)"}}, "note": "Substitutions are numbered along the chain they refer to. For part of these data: The comparison behind a weaker result is the experiment's own reference, which may not be listed here. For part of these data: Protein sequences can lack the tags named with them. For part of these data: Construct, isoform or probe ends are uncertain for at least one entry."}
{"sequence": "AAAGGUGGUAAAA [GGUGGU 13-mer]", "values": [{"measurement": "binding result", "setting": "[1]", "value": "binds"}]}
{"sequence": "AGAAUGAGGUAA [one-site scrambled double site]", "values": [{"measurement": "binding result", "setting": "[2]", "value": "binds more weakly"}]}
{"sequence": "AGGAAUAAGUGAAGCUG [Tra2-beta exon 2 5' splice site competitor]", "values": [{"measurement": "binding result", "setting": "[3]", "value": "binds more weakly"}]}
{"sequence": "AGGUAA [AGGUAA hexamer]", "values": [{"measurement": "binding result", "setting": "EKLF-F123", "value": "binds more weakly"}]}
{"sequence": "AGUUAA [AGUUAA (3U)]", "values": [{"measurement": "binding result", "setting": "ZRANB2-F2 (Homo sapiens)", "value": "binds more weakly"}]}
{"sequence": "GCAACCAGGUAAAGUCU [17-nt AGGUAA ssRNA]", "values": [{"measurement": "binding result", "setting": "[4]", "value": "binds more weakly"}, {"measurement": "binding result", "setting": "[5]", "value": "binds more weakly"}, {"measurement": "binding result", "setting": "[6]", "value": "binds more weakly"}, {"measurement": "binding result", "setting": "[7]", "value": "binds more weakly"}, {"measurement": "binding result", "setting": "[8]", "value": "binds more weakly"}, {"measurement": "binding result", "setting": "[9]", "value": "binds more weakly"}]}
{"sequence": "GCGAGCGGUACGUAGA [Tra2-beta exon 1 5' splice site competitor]", "values": [{"measurement": "binding result", "setting": "[3]", "value": "binds more weakly"}]}
